Results deposited as PubChem BioAssay AID1159578 (Peter MacCallum Cancer Centre, 2015).

- Aim: 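Genome-wide hunt for genes controlling movement of lymphatic endothelial cells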 (primary screen)
- Cells: human lymphatic endothelial cells
- Reagent: siRNA pool against human genes, 40 nM
- Time to read-out: 48 h after transfection
- Measured: 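High-content imaging of dye-stained cells in a scratch assay measures filled wound area and nuclei per well; duplicate means given as ratio to mock and robust z-score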
- Direction: migration robust z-score: higher = faster migration into the scratch; nuclei per well: higher = more cells in the well
- Rule for the call: 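Migration changed when robust z exceeds 2 or falls below -2 and mean nuclei number is at least 3300; otherwise not called changed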
- Calls: active = migration changed; inactive = no migration change, or too few cells
The deposit covers about 18,000 reagents; this is a random part of them. About 1,030 of all reagents (5.7%) were called active. 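Inactive calls also include pools with fewer than 3300 nuclei, whose migration was not assessed.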 Raw values vary from plate to plate and are shown uncorrected. Unmarked entries are inactive. Further read-outs or replicates are left out here. No sequences are given here.

Silencing of NIPSNAP1 came out at: migration robust z-score -0.48; nuclei per well, duplicate mean 5654.
Against DCAF6, the entry reads migration robust z-score 2.39 (active); nuclei per well, duplicate mean 6794.
Against RPIA, the entry reads migration robust z-score -0.97; nuclei per well, duplicate mean 7312.
Against IGSF22, the entry reads migration robust z-score -0.5; nuclei per well, duplicate mean 5734.
IDO1 scored migration robust z-score 0.16; nuclei per well, duplicate mean 5394.
PCDHA12 scored migration robust z-score 0.93; nuclei per well, duplicate mean 5370.
PLRG1 showed migration robust z-score -0.9; nuclei per well, duplicate mean 5341.
Depletion of STEAP4 came out at: migration robust z-score -1.1; nuclei per well, duplicate mean 3606.
For HIBADH the deposit lists migration robust z-score -2.36; nuclei per well, duplicate mean 3058.
HPN showed migration robust z-score 0.44; nuclei per well, duplicate mean 5703.
PHAX gave migration robust z-score -0.27; nuclei per well, duplicate mean 5942.
LMBRD1 gave migration robust z-score -0.38; nuclei per well, duplicate mean 6409.
With knock-down of POSTN the results were migration robust z-score -0.96; nuclei per well, duplicate mean 6182.

Not a retest: 3 of the entries above.
NIPSNAP1: migration robust z-score = -0.48; nuclei per well, duplicate mean = 5654
DCAF6: migration robust z-score = 2.39 (active); nuclei per well, duplicate mean = 6794
RPIA: migration robust z-score = -0.97; nuclei per well, duplicate mean = 7312

Next records follow:
SLC36A4 gave migration robust z-score 0.42; nuclei per well, duplicate mean 6168.
Depletion of KIAA0408 came out at: migration robust z-score -0.1; nuclei per well, duplicate mean 4985.
With knock-down of OR5A2, the record shows migration robust z-score 1.18; nuclei per well, duplicate mean 6115.
Depletion of SPDYE3 came out at: migration robust z-score -2.38 (active); nuclei per well, duplicate mean 3718.
Depletion of ADGRL2 resulted in: migration robust z-score -0.54; nuclei per well, duplicate mean 5560.
With knock-down of SNUPN, the record shows migration robust z-score 1.25; nuclei per well, duplicate mean 4636.
With knock-down of IVNS1ABP the results were migration robust z-score 0.19; nuclei per well, duplicate mean 5600.
CIC scored migration robust z-score -1.18; nuclei per well, duplicate mean 7418.
